This note sets out measurements from paper PMC12352907.

The chains behind the UniProt entries cited, without tags or fusion partners. Where a name states a change or a piece, a line headed by the entry shows the natural chain unless it says otherwise.
UniProt O95477: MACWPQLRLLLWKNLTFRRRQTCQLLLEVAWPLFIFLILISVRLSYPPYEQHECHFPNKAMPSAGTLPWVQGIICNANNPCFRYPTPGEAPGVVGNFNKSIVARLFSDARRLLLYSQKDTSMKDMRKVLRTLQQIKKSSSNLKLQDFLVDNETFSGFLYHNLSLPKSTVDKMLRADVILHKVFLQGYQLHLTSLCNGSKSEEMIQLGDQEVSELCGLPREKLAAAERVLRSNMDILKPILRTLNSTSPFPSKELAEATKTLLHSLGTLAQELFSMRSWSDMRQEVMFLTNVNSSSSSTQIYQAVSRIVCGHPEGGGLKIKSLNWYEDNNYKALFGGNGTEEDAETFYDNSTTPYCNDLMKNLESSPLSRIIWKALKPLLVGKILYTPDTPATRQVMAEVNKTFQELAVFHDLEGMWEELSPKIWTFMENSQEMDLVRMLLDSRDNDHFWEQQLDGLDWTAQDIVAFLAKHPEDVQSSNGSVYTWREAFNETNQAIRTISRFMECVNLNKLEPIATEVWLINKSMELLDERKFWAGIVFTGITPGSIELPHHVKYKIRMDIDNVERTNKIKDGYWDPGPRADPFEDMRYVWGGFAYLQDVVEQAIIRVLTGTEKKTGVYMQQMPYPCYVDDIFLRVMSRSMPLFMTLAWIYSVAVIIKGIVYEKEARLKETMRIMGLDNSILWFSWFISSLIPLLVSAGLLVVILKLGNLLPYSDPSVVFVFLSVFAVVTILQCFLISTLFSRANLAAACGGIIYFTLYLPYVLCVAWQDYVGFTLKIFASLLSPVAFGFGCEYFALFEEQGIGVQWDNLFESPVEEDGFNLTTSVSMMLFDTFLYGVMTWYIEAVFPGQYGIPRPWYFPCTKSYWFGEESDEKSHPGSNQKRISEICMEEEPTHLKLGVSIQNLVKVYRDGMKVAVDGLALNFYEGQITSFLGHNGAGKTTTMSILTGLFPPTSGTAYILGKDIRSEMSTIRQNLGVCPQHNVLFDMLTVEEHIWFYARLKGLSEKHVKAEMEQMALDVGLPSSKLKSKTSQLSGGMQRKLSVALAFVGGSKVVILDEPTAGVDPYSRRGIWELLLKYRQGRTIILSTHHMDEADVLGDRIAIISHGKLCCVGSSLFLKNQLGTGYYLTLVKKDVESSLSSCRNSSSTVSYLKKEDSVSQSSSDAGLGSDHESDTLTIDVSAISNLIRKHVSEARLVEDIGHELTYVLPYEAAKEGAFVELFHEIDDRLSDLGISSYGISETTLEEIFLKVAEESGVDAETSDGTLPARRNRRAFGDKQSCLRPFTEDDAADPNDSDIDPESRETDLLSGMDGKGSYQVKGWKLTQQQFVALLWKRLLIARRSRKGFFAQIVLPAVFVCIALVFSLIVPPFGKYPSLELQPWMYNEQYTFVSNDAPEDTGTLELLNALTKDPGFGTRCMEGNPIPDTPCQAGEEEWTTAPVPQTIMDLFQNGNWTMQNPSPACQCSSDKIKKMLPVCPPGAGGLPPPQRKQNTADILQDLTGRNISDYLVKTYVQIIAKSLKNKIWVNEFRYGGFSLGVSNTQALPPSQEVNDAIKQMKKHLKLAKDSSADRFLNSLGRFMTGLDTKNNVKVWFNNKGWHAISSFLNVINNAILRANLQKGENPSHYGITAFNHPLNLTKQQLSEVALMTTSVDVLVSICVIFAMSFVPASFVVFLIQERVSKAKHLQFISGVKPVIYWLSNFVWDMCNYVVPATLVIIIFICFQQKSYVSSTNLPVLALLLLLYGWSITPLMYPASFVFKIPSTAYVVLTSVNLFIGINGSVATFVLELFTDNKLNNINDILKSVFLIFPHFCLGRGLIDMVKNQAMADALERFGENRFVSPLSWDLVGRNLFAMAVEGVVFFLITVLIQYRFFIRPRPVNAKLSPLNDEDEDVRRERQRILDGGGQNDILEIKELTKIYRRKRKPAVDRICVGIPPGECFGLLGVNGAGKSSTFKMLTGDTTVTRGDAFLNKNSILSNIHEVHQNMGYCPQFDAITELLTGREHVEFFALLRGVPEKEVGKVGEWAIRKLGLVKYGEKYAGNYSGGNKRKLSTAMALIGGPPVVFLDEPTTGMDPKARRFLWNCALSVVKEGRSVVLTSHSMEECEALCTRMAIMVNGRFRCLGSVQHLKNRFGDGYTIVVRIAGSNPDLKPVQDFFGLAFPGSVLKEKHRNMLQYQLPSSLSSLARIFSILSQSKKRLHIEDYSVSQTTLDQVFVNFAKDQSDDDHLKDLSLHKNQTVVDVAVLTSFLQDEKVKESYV
UniProt O94822: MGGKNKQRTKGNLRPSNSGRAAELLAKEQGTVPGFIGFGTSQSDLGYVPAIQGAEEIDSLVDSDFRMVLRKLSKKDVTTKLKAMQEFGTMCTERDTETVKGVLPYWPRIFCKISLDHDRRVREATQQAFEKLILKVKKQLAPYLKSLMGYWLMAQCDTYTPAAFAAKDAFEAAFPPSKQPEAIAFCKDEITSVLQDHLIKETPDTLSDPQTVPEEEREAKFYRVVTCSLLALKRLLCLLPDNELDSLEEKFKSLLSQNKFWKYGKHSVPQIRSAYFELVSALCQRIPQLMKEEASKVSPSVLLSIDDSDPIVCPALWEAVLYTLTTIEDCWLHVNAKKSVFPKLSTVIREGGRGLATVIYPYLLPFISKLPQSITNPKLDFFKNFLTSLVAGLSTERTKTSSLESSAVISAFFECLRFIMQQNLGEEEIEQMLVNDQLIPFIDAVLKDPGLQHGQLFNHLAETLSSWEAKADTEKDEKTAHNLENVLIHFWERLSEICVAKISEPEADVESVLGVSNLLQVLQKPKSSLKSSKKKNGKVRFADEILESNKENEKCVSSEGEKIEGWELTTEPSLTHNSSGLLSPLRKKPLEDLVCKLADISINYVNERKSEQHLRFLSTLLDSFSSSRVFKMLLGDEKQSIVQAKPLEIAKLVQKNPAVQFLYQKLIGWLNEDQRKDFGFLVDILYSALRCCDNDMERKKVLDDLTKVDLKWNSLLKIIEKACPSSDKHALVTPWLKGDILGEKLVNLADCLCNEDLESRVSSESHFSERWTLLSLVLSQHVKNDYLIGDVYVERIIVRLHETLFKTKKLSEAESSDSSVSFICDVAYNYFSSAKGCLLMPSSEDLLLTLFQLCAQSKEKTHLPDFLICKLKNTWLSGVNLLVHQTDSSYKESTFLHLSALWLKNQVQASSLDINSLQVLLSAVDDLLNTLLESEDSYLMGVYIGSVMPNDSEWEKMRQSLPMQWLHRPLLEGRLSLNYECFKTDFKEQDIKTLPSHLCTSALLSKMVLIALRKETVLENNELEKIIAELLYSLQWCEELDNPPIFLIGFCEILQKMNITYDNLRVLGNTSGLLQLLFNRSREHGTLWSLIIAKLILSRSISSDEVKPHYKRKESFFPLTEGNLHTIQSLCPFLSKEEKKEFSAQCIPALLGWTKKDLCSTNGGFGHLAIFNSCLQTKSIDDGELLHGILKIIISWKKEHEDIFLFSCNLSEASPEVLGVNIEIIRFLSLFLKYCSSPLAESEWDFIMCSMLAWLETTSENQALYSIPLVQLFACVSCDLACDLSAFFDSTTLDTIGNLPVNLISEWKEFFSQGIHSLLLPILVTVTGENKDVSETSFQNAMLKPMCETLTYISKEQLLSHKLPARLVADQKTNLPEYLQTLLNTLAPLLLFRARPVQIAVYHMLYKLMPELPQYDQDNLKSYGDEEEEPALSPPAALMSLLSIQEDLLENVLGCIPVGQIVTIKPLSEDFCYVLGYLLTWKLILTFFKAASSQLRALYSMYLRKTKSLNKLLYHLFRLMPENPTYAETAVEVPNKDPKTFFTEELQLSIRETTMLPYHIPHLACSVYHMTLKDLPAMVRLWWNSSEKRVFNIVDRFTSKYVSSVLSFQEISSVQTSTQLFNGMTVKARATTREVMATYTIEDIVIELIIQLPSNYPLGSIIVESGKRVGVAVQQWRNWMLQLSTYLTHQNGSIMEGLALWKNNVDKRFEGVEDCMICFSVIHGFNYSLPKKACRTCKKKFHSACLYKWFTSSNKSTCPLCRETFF

The assay addresses GFP-ABCA1-ΔNRNR (human) (UniProt O95477). Nature of the assay: co-IP; HEK293T cells co-expressing Flag-Listerin with GFP-ABCA1 (WT or truncation mutants), Myc-ABCG1 or Myc-SRB1.

Results are given in words; binding and its absence hold for the method and conditions named. In cells and extracts the contact can be indirect. A result given as binding can be weak or reduced; the word gives no strength.

Regarding “Flag-Listerin (from UniProt O94822 1-1766) (enzyme)”, the binding entry is given as “binds weakly”.
